# Assay results from PubChem BioAssay AID540256 (National Center for Advancing Translational Sciences (NCATS), 2011).
# Hit rate of the full screen: of about 300,000 compounds, about 3,700 (1.2%) were called active. Inconclusive means that the source gave no clear call. Such entries were picked first, then a sample of the others. Calls come from the whole dose curve; tested in HEK293 cells. A potency beside an inconclusive call is a rough fit, not a confirmed value.
# Assay: qHTS for Inhibitors of binding or entry into cells for Lassa Virus; note: nearly all actives have a fitted effect of over 50% in size
# Details: Lassa virus pseudotype entry inhibition, cell reporter; series mostly up to 37.9 µM
# Potency is the fitted concentration of half-maximal effect.
row,Compound,Potency
1,CCOc1ccccc1NC(=O)C(C)n1nnc2sc3c(c2c1=O)CCCC3 (stereo not drawn),inactive
2,O=C(NC1CN2CCC1CC2)c1cc(Cl)c([N+](=O)[O-])c2nc[nH]c12 (stereo not drawn),"inconclusive: 2 µM [inhibitor, partial curve, poor fit]"
3,O=C(Nc1ccc(N2CCOCC2)cc1)C1CCN(S(=O)(=O)c2ccc3c(c2)OCCO3)CC1,inactive
4,O=C(CN1CCCCCC1)Nc1ccccc1OC(F)F,"inconclusive: 35.5 µM [inhibitor, single point]"
5,O=C(O)c1ccc(NC(=O)c2ccc(Cl)cc2)c(NC(=O)c2ccc(Cl)cc2)c1,"inconclusive: 3.98 µM [inhibitor, single point]"
6,O=C(CSc1cccs1)Nc1ccc2ccccc2c1,inactive
7,COC(=O)C1=C(C)NC(=O)/C1=C\N(C)C,inactive
8,COc1ccc(N=C(c2ccccc2)c2c(C)[nH]n(-c3ccccc3)c2=O)c(OC)c1,"inconclusive: 22.4 µM [inhibitor, single point]"
9,COc1ccc(C(=O)CC(=O)c2ccccc2)cc1,"inconclusive: 3.16 µM [activator, single point]"
10,CCn1c(-c2nonc2N)nc2c(C#CCN)ncc(OCCCN)c21,"inconclusive: 0.791 µM [activator, full curve, poor fit]"
11,Nc1cc2c(cc1Cl)-c1ccccc1C2,"inconclusive: 1.26 µM [activator, single point]"
12,N#CCCN(C(=O)COC(=O)CCc1ccccc1)c1ccccc1,inactive
13,CCOC(=O)/C(=C\c1cccc(O)c1)c1nc2sc(C)c(C)c2c(=O)[nH]1,"inconclusive: 20 µM [inhibitor, single point]"
14,Cc1ccc2[nH]c(C(=O)O)c(NC(=O)CN3CCN(c4cccc(C)c4C)CC3)c2c1,"inconclusive: 22.4 µM [inhibitor, single point]"
15,O=C(c1ccc(Cl)cc1Cl)N1CCC(c2nc3c(nnn3Cc3ccco3)c(=O)[nH]2)CC1,"inconclusive: 15.8 µM [inhibitor, partial curve, poor fit]"
16,COC1=NS(=O)(=O)c2ccccc21,inactive
17,CCN(/C(N)=N/c1nc(C)cc(C)n1)c1ccccc1,inactive
18,CCOC(=O)C1CCN(c2nc3c(C)cccn3c(=O)c2/C=C(\C#N)S(=O)(=O)c2ccccc2)CC1,inactive
19,Cc1ccc(-c2ccc(SCC(=O)Nc3ccc4c(c3)OCCO4)nn2)cc1,inactive
20,CCOc1ccc2nc(SCC(=O)Nc3ccc4c(c3)OCCO4)[nH]c2c1,"inconclusive: 3.55 µM [inhibitor, partial curve, poor fit]"
21,Cc1ccc(Cl)cc1N1CCN(C(=O)c2cnn(-c3ccc(Cl)cc3)c2C2CCNCC2)CC1,"inconclusive: 20 µM [inhibitor, single point]"
22,COc1ccc(C(CNC(=O)c2ccc(NS(=O)(=O)c3ccc4c(c3)OCCO4)cc2)N(C)C)cc1 (stereo not drawn),inactive

row,Compound,Potency
1,COc1ccc(Oc2cn[nH]c2-c2ccc(OC)cc2O)cc1,"inconclusive: 8.91 µM [inhibitor, partial curve, poor fit]"
2,CC1CCN(C(=O)Oc2ccccc2)CC1,"inconclusive: 8.91 µM [activator, partial curve, poor fit]"
3,Cc1ccc2nc(N3CC(=O)Nc4ccccc43)nc(-c3ccccc3)c2c1,"inconclusive: 11.2 µM [inhibitor, partial curve, poor fit]"
4,O=C(NCc1ccccc1)c1cccc(COc2ccc(Cl)cc2)c1,"inconclusive: 35.5 µM [inhibitor, single point]"
5,Cc1ccc[n+](-c2[nH]c(=O)sc2/C=N/N=C(\[O-])c2cccnc2)c1,inactive
6,Oc1ccc(/C=N/Nc2ccccc2)cc1,"inconclusive: 5.01 µM [inhibitor, full curve]"
7,CCCC(c1nnnn1CC1CCCO1)N1CCN(c2nc3ccccc3s2)CC1 (stereo not drawn),"inconclusive: 0.891 µM [activator, partial curve, poor fit]"
8,CCc1cc2c(=O)c(-c3ccc4c(c3)OCCO4)c(C)oc2cc1OS(C)(=O)=O,"inconclusive: 35.5 µM [inhibitor, single point]"
9,COc1cc(OC)cc(-n2c3nc4ccccc4nc3c3c(=O)n(CC4CCCO4)cnc32)c1 (stereo not drawn),"inconclusive: 17.8 µM [activator, single point]"
10,CCCOC1CCCN(C(=O)c2ccc(OC3CCN(C(=O)COC)CC3)cc2)C1 (stereo not drawn),"inconclusive: 11.2 µM [activator, single point]"
11,CCCCCCCCC1=NCCc2c1[nH]c1ccccc21,"inconclusive: 25.1 µM [inhibitor, single point]"
12,COC(=O)COc1cccc(NC(=O)c2cccc(C)c2)c1,inactive
13,COc1ccc(S(=O)(=O)NCC(c2ccc(N(C)C)cc2)N2CCCC2)cc1F (stereo not drawn),"inconclusive: 5.62 µM [inhibitor, single point]"
14,O=C(Cc1n[nH]c(=O)[nH]c1=O)N/N=C/c1ccccc1O,inactive
15,Cc1ccc(C(O)c2ccncc2)cc1 (stereo not drawn),"inconclusive: 0.461 µM [inhibitor, partial curve, poor fit]"
16,CCOC(=O)c1cccc(NC(=O)C2(S(=O)(=O)c3ccc(C)cc3)CC2)c1,"inconclusive: 2.91 µM [inhibitor, full curve, poor fit]"
17,FC(F)(F)c1cccc(NC(=S)N(CCCN2CCCC2)Cc2cccn2Cc2ccc(Cl)cc2)c1,"inconclusive: 11.2 µM [inhibitor, partial curve, poor fit]"
18,COCCn1c(-c2ccc(-c3ccccc3Cl)o2)nc2c1c(=O)[nH]c(=O)n2CC(C)C,"inconclusive: 18.3 µM [inhibitor, partial curve, poor fit]"
19,O=C(Nc1ccc[n+](CC(=O)c2cccc3ccccc23)c1)c1ccccc1,"inconclusive: 35.5 µM [inhibitor, single point]"
20,O=P12OCC=C[C@H](C[C@H](CC3C#C3)O1)O2,"inconclusive: 0.0996 µM [inhibitor, full curve, poor fit]"
21,COC(=O)c1ccc(C)c(NS(=O)(=O)c2ccc(OC)c(OC)c2)c1,"inconclusive: 6.51 µM [inhibitor, single point]"

# Random excerpt: two records from the list
row,Compound,Potency
4,O=C(NCc1ccccc1)c1cccc(COc2ccc(Cl)cc2)c1,"inconclusive: 35.5 µM [inhibitor, single point]"
10,CCCOC1CCCN(C(=O)c2ccc(OC3CCN(C(=O)COC)CC3)cc2)C1 (stereo not drawn),"inconclusive: 11.2 µM [activator, single point]"
